B1: periplasmic chaperone Spy (natural protein, Escherichia coli, UniProt P77754 24-161, looked up)
chain: ADTTTAAPADAKPMMHHKGKFGPHQDMMFKDLNLTDAQKQQIREIMKGQRDQMKRPPLEERRAMHDIIASDTFDKVKAEAQIAKMEEQRKANMLAHMETQNKIYNILTPEQKKQFNANFEKRLTERPAAKGKMPATAE
notes: Spy, periplasmic chaperone of Escherichia coli; [U-2H,15N]-labelled in the HSQC experiment with unlabelled OmpX, unlabelled elsewhere; also called wild-type Spy; WT Spy; source: E. coli, from pET28b(+)-HisSUMO-spy, purified (6xHis-SUMO tag removed, cation exchange)
B2: Spy^Q100L (natural protein, Escherichia coli, UniProt P77754 24-161, looked up)
chain: B1 chain with Q100L
notes: Spy of Escherichia coli with Q100L; also called Q100L variant; source: E. coli, from pET28b(+)-HisSUMO-spy-Q100L, purified
B3: seventeen-kilodalton protein (Skp) (natural protein, Escherichia coli, UniProt P0AEU7 21-161, looked up)
chain: ADKIAIVNMGSLFQQVAQKTGVSNTLENEFKGRASELQRMETDLQAKMKKLQSMKAGSDRTKLEKDVMAQRQTFAQKAQAFEQDRARRSNEERGKLVTRIQTAVKSVANSQDIDLVVDANAVAYNSSDVKDITADVLKQVK
notes: Skp, periplasmic chaperone of Escherichia coli; source: E. coli, from pET28b(+)-HisSUMO-skp, purified (6xHis-SUMO tag removed, cation exchange)

Positions count from the first letter of the chain named. Numbers in names are those of the source. No constants are given. Whether binding was seen depends on the method and setting. Binding calls can cover weak binding; strength is not graded here.

In the assay the target is transmembrane domain of OmpA (tOmpA) (Escherichia coli). Briefly: NMR spectroscopy of assembled chaperone-OMP complexes; excess urea-denatured OMP added dropwise to the chaperone, supernatant concentrated; 2D [15N,1H]-TROSY or HSQC with one partner [U-2H,15N]-labelled; 25 mM MES, 50 mM NaCl, pH 6.5; 315 K (tOmpA-Spy also at 42, 26 and 15 C); both purified.
For B1, the binding entry is listed as “binds”.
On to B2, for which the binding entry is “binds”.
For B3, the binding result is “binds”.
